The values below come from patent publication US6075009A (East Carolina University, priority 1995, dated 2000).

The data set can be described thus: Fmoc solid-phase peptide synthesis; PAL resin; BOP. The conditions noted are these: whole synthesis.

Square brackets hold non-standard residues; d marks the D form. Ends that are not written are not given here.

[dY]INLI[dT]RQR[dY]-NH2: the “final purity (method not given)” value is reported as not below 95%.
